This experiment deals with C8161 human melanoma xenografts. Briefly: Immunohistochemistry on excised C8161 xenografts (riluzole/MK2206 study). The class given is in vivo, mice. The following applies: riluzole 10 mg/kg, MK2206 30 mg/kg, or combination at half the dose of each (p<0.001). The text has this:
Tissue Analytical Services at the Cancer Institute of New Jersey performed immunohistochemical staining on excised tumor xenografts to detect changes in the number of apoptotic and proliferating cells (activated Caspase 3 and Ki-67, respectively). The number of stained cells was quantified with a Digital Aperio ScanScopeGL system and ImageScope software (v 10.1.3.2028) (Aperio Technologies Inc., Vista, Calif.) according to the manufacturer's protocol.
Excised tumor samples were subjected to immunohistochemistry evaluation with the apoptosis marker, cleaved Caspase-3, and the proliferation index marker, Ki-67.

For the compound `Nc1nc2ccc(OC(F)(F)F)cc2s1` [riluzole], the “number of Ki-67 positive cells” value is on record as “decrease in the number of Ki-67 positive cells”.
